pKd: −log10 of the molar value. For some assays here: A negative result means that nothing was seen under these conditions. For some assays here: Construct, isoform or probe ends are uncertain for at least one entry. For some assays here: Protein sequences can lack the tags named with them.

For data set [1], the system named is TRβ1 DBD (TRβ1ΔAB/EF) + GATA2-Zf. Nature of the data set: gel filtration + agarose EMSA. The conditions noted are these: 100 uM each, no heterodimer on DNA, although each protein binds; recombinant protein; protein details: His (pET28a),His, thrombin treated; label: 5' fluorescein (FITC) on forward strand. (In general: SEC sorts molecules by how far they enter the pores of the column.)

In data set [2] the target is T1, TRβ1 DBD-LBD (TR DL, TRβ1ΔAB) (human) (UniProt P10828).
T1 sequence (looked up): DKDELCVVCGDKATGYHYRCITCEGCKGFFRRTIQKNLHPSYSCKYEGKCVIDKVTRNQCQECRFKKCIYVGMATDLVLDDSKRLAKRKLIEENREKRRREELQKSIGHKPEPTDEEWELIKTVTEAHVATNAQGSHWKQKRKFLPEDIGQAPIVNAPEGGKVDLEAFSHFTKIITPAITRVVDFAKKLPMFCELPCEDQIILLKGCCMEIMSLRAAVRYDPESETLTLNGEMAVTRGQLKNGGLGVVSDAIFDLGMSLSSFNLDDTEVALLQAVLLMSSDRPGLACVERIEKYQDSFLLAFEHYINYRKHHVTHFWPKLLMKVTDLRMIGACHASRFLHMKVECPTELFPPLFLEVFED
Nature of the data set: fluorescence anisotropy. The conditions noted are these: T3, Hill n 1.7±0.4; Fluorescence anisotropy: 10 nM DNA, 20 mM Hepes pH 8.0, 50 mM NaCl, 1 mM MgCl2, 3 mM DTT, 5% glycerol, 10°C; agarose gel 1.3% in 0.5x TBE; recombinant protein; residues 102-461; protein details: His (pET28a); label: 5' fluorescein (FITC) on forward strand. In general terms: Fluorescence polarisation rises when a labelled molecule tumbles more slowly, as on binding a larger partner.

For the sequence “TCAATAGATGCTTTTCAGATAAGAA (double strand) [TSH GATA-RE]”, the binding result in data set [1] is “no binding”.

For “TGGGTCACCACAGCATCTGCTCACCAATGCAAAGT (double strand) [TSH NRE]”, in data set [2], the pKd is 5.93.

For orientation: pKd means the negative decadic logarithm of the Kd, by convention in mol/L.

The record behind these values is paper PMC2935386.
